Experimental data from article PMC7002697.
Results are given in words; binding and its absence hold for the method and conditions named. A result given as binding can be weak or reduced; the word gives no strength. One block for each molecule: values may come before it.

By UniProt entry, the sequences of proteins in these tests, tags left out. Where a name states a change or a piece, a line headed by the entry shows the natural chain unless it says otherwise.
UniProt P72839: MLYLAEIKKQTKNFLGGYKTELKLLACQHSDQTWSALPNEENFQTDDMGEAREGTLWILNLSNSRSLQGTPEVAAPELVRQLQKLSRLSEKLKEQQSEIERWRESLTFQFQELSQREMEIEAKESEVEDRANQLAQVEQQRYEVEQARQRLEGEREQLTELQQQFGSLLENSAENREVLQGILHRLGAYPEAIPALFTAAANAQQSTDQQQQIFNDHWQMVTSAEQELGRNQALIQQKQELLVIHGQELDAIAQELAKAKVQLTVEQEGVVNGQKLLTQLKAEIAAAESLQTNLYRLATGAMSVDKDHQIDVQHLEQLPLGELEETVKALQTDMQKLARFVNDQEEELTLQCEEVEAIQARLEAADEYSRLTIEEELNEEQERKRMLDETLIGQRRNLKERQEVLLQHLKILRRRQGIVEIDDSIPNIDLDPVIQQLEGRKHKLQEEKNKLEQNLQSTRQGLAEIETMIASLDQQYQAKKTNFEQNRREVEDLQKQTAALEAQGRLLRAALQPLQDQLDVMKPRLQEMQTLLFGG

Assays:
Assay in all cases: two-hybrid; BACTH (Euromedex) in E. coli BTH101; C- and N-terminal fusions to T25 or T18; beta-galactosidase assays (Miller units) from three colonies, grown over night at 30 °C or 2 d at 20 °C
[1] = biological target: T1, HmpFSyc (Synpcc7942_1139) (Synechococcus elongatus PCC 7942) (UniProt Q31P50)
T1 sequence: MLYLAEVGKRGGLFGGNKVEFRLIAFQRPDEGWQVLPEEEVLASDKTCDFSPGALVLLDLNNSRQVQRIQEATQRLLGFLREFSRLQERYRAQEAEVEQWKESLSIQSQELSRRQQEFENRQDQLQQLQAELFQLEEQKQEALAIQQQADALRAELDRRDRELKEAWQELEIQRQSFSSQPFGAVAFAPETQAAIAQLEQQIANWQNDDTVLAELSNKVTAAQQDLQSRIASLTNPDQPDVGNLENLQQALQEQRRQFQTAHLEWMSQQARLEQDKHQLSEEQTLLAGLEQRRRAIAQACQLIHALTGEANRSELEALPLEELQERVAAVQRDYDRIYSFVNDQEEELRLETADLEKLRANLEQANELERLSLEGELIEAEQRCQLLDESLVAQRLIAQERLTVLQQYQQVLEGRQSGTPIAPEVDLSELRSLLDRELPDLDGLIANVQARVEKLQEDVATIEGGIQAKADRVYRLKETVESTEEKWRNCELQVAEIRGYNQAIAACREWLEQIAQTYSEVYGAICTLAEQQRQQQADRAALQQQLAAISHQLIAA

[2] = biological target: HmpFSyn (Slr1301) (Synechocystis sp. PCC 6803) (UniProt P72839)
HmpFAna = biological target: HmpFAna

binding [1]: binds
Molecule: HmpFSyn (Slr1301) (from UniProt P72839)

binding [2]: binds
Molecule: Slr7083 (from UniProt Q6ZEB5)

binding (HmpFAna): binds
B1: HmpFSyc (Synpcc7942_1139) (protein, UniProt Q31P50 1-556)
chain: MLYLAEVGKRGGLFGGNKVEFRLIAFQRPDEGWQVLPEEEVLASDKTCDFSPGALVLLDLNNSRQVQRIQEATQRLLGFLREFSRLQERYRAQEAEVEQWKESLSIQSQELSRRQQEFENRQDQLQQLQAELFQLEEQKQEALAIQQQADALRAELDRRDRELKEAWQELEIQRQSFSSQPFGAVAFAPETQAAIAQLEQQIANWQNDDTVLAELSNKVTAAQQDLQSRIASLTNPDQPDVGNLENLQQALQEQRRQFQTAHLEWMSQQARLEQDKHQLSEEQTLLAGLEQRRRAIAQACQLIHALTGEANRSELEALPLEELQERVAAVQRDYDRIYSFVNDQEEELRLETADLEKLRANLEQANELERLSLEGELIEAEQRCQLLDESLVAQRLIAQERLTVLQQYQQVLEGRQSGTPIAPEVDLSELRSLLDRELPDLDGLIANVQARVEKLQEDVATIEGGIQAKADRVYRLKETVESTEEKWRNCELQVAEIRGYNQAIAACREWLEQIAQTYSEVYGAICTLAEQQRQQQADRAALQQQLAAISHQLIAA
